Results reported in ChEMBL document CHEMBL1145965, “4-Substituted 4-hydroxycyclohexa-2,5-dien-1-ones with selective activities against colon and renal cancer cell lines” (J Med Chem, 2003).

Key:
Type in all cases: functional
[1] = tested on: SW-620; assay: In vitro lethal concentration against least sensitive colon SW-620 cell line; settings: Homo sapiens, read-out: LC50 (the source's name)
[2] = tested on: ACHN; assay: In vitro lethal concentration against most sensitive ACHN cell line; settings: Homo sapiens, read-out: LC50 (the source's name)
[3] = tested on: Panel NCI-60 (60 carcinoma cell lines); assay: In vitro mean growth lethal concentration in renal subpanel against 60-cell panel; settings: Homo sapiens, read-out: Mean LC50
[4] = tested on: HCT-116; assay: In vitro lethal concentration against most sensitive colon HCT116 cell line; settings: Homo sapiens, read-out: LC50 (the source's name)
[5] = tested on: Panel NCI-60 (60 carcinoma cell lines); assay: In vitro mean growth lethal concentration in colon subpanel against 60-cell panel; settings: Homo sapiens, read-out: Mean LC50
[6] = tested on: Panel NCI-60 (60 carcinoma cell lines); assay: In vitro mean growth lethal concentration against 60-cell panel; settings: Homo sapiens, read-out: Mean LC50
[7] = tested on: Panel NCI-60 (60 carcinoma cell lines); assay: In vitro mean growth inhibitory activity against 60-cell panel; settings: Homo sapiens

OC1(c2nc3ccccc3s2)CCC2(CC1)OCCO2
> 100 µM: CC50 [1] | CC50 [2] | CC50 [3] | CC50 [4] | CC50 [5] | CC50 [6] | GI50 [7]
